Assay results taken from patent publication US20250059278A1.
Results are given in words; binding and its absence hold for the method and conditions named. Some entries that bind do so weakly or less than the wild type.

Amino acid sequences for entries named in this document (tags omitted). A change or cut given only in a name is not applied to a line headed by its entry. Chains listed by the source or under a name are the forms on record and can include a tag or linker. Residues count along the entry.
human MSLN-his (Kaika Biotech, MSL-HM18D) (Q13421, form named): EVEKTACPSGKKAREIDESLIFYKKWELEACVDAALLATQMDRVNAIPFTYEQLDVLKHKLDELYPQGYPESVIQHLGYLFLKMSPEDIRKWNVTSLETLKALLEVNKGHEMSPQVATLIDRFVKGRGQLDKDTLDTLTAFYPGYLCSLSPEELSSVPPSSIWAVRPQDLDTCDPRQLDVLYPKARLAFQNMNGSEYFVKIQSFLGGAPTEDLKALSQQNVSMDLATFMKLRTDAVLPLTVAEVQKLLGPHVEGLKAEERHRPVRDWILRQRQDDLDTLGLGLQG
UniProt Q61468, residues 298-600: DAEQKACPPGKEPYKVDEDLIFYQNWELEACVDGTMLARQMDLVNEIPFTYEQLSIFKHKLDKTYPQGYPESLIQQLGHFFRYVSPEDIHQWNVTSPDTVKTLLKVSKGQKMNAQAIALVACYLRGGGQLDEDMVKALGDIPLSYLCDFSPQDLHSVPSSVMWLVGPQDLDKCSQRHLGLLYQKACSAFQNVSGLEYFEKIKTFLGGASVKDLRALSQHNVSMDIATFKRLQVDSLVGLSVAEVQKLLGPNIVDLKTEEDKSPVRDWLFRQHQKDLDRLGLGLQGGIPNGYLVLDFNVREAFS

Assays:
[1] = target: human MSLN-his (Kaika Biotech, MSL-HM18D) (human) (UniProt Q13421); assay: ELISA screening on coated MSLN-his
[2] = target: mouse MSLN-his (Kaika Biotech, MSL-MM180) (mouse) (UniProt Q61468); assay: ELISA screening on coated MSLN-his

B1: MSLN single-domain antibody 3C6 (VHH)
VHH: EVQLVESGGGLVQAGESLRLSCAVSGNIGSIRHMGWHRQDPGKERELVATITTVGTTYYANFVKGRFTISRDNAKNTVYLQMNSLKPEDTGVYYCRATAHPTDYWGQGTQVTVSS
For B1, the binding [1] was “binds” and the binding [2] was “binds”.
